Reference: article PMC12631104
No constants are given. Whether binding was seen depends on the method and setting. Binding can be weak; no strength is given. For part of these data: Sequences can lack the tags named with a protein.

The chains behind the UniProt entries cited, without tags or fusion partners. Where a name states a change or a piece, a line headed by the entry shows the natural chain unless it says otherwise.
UniProt P09429: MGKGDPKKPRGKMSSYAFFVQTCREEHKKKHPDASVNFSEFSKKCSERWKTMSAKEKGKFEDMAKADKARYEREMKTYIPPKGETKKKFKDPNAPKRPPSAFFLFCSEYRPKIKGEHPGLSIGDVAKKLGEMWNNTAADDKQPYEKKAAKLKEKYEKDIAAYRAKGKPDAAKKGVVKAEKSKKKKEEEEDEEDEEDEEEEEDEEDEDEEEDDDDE
UniProt O94813: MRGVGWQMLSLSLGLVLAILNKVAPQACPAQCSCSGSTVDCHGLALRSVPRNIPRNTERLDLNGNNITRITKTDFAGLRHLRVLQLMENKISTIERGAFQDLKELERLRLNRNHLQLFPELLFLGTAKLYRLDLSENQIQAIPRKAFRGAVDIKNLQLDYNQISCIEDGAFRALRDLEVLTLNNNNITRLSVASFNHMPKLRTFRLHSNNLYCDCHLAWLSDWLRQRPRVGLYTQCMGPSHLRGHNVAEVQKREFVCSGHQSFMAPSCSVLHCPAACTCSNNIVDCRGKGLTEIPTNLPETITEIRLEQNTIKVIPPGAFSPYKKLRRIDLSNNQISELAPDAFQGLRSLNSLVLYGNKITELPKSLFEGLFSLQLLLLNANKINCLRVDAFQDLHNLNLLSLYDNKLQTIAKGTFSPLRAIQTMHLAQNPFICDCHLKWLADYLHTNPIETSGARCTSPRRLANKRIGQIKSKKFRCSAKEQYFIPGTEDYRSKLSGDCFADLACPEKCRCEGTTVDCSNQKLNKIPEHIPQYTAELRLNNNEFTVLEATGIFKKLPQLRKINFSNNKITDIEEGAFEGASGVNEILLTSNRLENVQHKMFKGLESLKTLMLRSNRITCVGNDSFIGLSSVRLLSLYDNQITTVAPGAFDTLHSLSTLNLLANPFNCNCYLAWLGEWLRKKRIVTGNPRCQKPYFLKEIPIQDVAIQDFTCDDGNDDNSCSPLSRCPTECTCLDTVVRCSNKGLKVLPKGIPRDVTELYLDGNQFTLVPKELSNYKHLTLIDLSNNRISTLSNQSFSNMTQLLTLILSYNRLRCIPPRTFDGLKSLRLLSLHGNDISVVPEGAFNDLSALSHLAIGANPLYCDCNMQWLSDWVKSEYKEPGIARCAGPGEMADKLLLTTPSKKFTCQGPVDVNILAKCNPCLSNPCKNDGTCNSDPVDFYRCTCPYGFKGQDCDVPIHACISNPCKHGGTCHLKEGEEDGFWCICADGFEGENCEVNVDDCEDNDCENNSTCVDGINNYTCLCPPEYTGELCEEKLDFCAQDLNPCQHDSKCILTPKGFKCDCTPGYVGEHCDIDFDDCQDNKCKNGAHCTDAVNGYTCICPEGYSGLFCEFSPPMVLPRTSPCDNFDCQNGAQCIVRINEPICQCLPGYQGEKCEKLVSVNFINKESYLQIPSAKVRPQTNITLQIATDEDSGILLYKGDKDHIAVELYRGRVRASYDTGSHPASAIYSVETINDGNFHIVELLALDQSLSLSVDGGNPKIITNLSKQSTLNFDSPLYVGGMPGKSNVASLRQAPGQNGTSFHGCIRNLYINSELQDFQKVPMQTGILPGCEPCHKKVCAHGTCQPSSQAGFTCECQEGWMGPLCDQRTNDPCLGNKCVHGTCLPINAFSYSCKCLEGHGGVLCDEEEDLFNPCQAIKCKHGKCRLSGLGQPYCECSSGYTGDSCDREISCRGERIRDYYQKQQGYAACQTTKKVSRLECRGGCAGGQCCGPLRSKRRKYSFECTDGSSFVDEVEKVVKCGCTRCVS

Tests used:
Assay in all cases: pull-down; purified GST or GST-fusion HMGB1/2 immobilized on glutathione resin (4 C, 2 hours), incubated with purified SLIT2, SLIT2-N or SLIT2-C (4 C, 4 hours); washed with PBS, 0.1% Triton X-100; SDS-PAGE and immunoblotting; both purified
[1] = target: GST-fusion HMGB1 (high mobility group box 1) (UniProt P09429)
[2] = target: T1, GST-fusion HMGB2 (high mobility group box 2) (UniProt P26583)
T1 sequence: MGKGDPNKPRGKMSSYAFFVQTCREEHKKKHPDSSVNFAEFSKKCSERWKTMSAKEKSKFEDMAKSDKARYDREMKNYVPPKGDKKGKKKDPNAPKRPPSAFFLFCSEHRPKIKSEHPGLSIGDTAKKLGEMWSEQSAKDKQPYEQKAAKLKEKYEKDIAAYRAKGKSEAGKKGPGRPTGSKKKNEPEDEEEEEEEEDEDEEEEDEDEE

[3] = target: K-Hcy-modified GST-fusion HMGB1 (UniProt P09429)
[4] = target: T2, K-Hcy-modified GST-fusion HMGB2 (UniProt P26583)
T2 sequence (chain, N-homocysteinylated lysines (K-Hcy); sites not stated for this protein): T1 sequence

Measured: binding

purified SLIT2-N terminal (N) protein (from UniProt O94813) (domain or fragment)
binds: [1] | [2] | [3] | [4]

purified SLIT2-C terminal (C) protein (from UniProt O94813) (domain or fragment)
binds: [1] | [2]
